Data as given in paper doi:10.64898/2025.12.08.693079.
No constants are given. Whether binding was seen depends on the method and setting. For some assays here: In cells and extracts the contact can be indirect. Some binding calls cover weakened binding; strength is not graded here. Each block holds one substance with its values, some of them ahead of it.

Amino acid sequences for entries named in this document (tags omitted). A change or cut given only in a name is not applied to a line headed by its entry.
UniProt P43583: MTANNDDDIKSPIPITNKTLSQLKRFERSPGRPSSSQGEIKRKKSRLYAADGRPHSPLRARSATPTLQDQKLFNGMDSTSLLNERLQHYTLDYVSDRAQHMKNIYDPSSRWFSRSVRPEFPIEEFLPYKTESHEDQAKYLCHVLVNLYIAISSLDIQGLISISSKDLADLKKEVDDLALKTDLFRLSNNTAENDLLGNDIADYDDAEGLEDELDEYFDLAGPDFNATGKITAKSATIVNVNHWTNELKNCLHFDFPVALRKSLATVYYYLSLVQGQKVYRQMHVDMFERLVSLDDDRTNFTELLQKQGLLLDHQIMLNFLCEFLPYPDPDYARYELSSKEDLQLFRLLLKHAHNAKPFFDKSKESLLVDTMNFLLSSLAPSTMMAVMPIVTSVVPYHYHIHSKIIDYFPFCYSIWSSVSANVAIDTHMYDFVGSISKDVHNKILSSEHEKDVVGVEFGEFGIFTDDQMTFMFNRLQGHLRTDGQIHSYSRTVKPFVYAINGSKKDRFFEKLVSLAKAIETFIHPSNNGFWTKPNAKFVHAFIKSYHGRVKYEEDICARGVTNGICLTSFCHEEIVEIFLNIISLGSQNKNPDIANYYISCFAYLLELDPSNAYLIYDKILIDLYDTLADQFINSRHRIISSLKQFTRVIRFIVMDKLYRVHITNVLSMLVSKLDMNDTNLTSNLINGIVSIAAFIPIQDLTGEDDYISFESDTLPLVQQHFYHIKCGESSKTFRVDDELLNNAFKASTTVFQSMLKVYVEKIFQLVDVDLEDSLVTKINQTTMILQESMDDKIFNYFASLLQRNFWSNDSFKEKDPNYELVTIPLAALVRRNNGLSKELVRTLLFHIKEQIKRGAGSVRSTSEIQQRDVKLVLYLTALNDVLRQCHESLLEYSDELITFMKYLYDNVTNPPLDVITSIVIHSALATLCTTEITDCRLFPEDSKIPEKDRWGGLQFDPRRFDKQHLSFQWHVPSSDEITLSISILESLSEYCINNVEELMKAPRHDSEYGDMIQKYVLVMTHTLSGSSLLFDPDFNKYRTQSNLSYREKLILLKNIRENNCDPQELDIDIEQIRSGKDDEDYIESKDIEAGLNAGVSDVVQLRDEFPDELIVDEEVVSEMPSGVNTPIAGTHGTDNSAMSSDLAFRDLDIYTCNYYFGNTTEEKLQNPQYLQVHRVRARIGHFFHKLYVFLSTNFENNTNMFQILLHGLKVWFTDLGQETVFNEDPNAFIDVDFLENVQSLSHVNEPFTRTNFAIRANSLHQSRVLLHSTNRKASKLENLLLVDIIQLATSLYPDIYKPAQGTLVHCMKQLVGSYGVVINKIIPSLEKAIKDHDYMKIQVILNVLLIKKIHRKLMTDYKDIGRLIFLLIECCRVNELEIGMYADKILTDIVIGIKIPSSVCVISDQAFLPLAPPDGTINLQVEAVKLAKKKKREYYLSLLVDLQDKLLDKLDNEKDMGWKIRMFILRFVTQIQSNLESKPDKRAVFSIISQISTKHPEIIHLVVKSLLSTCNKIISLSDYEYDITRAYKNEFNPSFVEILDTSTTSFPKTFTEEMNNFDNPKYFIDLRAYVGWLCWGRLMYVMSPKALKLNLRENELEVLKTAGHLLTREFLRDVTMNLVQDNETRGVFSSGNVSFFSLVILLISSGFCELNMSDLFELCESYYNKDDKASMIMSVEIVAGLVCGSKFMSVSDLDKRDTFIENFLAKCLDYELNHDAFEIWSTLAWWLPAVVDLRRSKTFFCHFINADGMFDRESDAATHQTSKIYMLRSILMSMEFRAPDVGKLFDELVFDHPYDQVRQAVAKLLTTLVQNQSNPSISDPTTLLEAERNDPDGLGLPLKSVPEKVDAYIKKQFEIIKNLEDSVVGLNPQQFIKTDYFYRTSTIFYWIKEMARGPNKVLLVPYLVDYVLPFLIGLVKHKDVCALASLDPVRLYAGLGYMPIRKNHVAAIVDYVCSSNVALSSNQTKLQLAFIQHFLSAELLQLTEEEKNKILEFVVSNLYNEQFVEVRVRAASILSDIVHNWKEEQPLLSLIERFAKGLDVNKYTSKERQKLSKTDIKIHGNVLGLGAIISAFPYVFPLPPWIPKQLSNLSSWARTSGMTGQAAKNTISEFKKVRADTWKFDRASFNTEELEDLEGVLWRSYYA
UniProt P29311: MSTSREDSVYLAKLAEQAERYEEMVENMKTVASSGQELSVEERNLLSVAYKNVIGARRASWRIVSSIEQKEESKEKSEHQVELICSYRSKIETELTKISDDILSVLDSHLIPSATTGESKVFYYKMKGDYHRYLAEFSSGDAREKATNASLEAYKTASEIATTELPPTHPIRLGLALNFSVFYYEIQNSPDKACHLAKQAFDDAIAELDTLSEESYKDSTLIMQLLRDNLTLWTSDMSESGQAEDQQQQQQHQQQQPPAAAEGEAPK

Key:
[1] = target: 3FLAG-Blm10 L1049D, L1052D (S. cerevisiae) (UniProt P43583); assay: co-IP
[2] = target: 3x-Flag-tagged Blm10 (S. cerevisiae) (UniProt P43583); assay: co-IP
[3] = target: 3x-Flag-tagged Blm10 (S. cerevisiae) (UniProt P43583); assay: cryo-EM structure
[4] = target: Bmh1 (S. cerevisiae (endogenous in SK1)) (UniProt P29311); assay: cryo-EM structure
[5] = target: T1, α5 (S. cerevisiae (endogenous in SK1)) (UniProt P32379); assay: cryo-EM structure
T1 sequence: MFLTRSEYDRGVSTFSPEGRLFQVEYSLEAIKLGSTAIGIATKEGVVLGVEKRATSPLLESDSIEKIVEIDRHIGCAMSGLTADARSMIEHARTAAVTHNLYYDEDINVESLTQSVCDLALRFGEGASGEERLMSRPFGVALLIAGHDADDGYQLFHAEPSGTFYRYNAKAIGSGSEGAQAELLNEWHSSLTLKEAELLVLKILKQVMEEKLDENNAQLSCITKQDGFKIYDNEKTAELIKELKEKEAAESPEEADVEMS

binding [1]: binds
binding [2]: binds
Substance: Bmh1-3HA (from UniProt P29311 1-267)

binding [3]: binds
binding [4]: binds
Substance: Bmh1 (from UniProt P29311 1-267)

binding [5]: binds
Substance: 3x-Flag-tagged Blm10 (from UniProt P43583 1-2143)
